Measured values from the supplement of paper PMC10849652.
This is one part of the list.

Protein sequences, listed by entry. Tags and fused reporters are not part of them. Lines headed by an entry give the natural chain unless they say otherwise; changes in a name come on top.
UniProt Q8IZ52: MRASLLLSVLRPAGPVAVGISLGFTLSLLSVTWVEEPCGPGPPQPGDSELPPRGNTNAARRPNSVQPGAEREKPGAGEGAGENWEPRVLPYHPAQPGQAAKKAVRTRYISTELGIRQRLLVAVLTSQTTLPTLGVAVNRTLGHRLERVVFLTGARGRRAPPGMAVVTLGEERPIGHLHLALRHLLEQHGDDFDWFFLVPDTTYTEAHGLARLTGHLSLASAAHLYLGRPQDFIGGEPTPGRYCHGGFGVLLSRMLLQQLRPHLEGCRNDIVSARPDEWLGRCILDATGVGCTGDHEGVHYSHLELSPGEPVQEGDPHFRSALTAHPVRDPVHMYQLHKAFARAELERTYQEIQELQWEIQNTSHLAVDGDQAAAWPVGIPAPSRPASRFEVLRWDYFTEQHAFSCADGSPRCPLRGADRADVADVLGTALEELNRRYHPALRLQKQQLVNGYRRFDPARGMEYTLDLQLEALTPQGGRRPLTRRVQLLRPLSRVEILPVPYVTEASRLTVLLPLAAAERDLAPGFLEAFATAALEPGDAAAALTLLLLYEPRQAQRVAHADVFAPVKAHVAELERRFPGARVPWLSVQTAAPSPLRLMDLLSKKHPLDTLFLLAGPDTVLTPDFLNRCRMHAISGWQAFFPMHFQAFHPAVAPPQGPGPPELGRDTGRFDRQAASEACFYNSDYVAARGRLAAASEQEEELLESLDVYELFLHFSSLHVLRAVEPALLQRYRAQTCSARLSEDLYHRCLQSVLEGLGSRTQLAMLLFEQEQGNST
UniProt Q96KA5: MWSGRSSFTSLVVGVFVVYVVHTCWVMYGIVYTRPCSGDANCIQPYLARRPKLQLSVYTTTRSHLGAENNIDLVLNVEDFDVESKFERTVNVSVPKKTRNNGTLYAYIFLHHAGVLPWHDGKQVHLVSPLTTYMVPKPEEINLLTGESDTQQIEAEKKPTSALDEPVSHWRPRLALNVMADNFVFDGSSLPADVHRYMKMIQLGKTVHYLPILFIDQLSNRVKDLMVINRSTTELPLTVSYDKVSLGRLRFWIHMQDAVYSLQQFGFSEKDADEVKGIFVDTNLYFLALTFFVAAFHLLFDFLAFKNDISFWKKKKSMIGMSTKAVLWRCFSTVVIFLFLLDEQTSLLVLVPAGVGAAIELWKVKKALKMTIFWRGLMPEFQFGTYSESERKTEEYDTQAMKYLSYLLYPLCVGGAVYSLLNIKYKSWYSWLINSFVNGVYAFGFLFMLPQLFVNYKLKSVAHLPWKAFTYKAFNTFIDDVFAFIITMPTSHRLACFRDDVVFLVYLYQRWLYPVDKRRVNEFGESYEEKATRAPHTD
UniProt Q99653: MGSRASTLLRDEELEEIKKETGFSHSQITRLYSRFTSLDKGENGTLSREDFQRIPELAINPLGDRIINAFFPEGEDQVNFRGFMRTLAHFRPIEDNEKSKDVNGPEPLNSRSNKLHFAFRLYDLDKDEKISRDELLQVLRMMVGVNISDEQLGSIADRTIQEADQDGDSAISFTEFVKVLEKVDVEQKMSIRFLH
UniProt Q16740, whole entry, looked up: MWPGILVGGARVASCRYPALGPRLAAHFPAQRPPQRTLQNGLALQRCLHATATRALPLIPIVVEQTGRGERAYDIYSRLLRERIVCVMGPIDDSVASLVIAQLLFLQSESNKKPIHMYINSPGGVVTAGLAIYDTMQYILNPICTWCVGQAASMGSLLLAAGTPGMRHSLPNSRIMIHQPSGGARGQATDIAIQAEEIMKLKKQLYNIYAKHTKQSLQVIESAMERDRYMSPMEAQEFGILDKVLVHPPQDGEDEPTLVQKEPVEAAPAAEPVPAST
UniProt P51798: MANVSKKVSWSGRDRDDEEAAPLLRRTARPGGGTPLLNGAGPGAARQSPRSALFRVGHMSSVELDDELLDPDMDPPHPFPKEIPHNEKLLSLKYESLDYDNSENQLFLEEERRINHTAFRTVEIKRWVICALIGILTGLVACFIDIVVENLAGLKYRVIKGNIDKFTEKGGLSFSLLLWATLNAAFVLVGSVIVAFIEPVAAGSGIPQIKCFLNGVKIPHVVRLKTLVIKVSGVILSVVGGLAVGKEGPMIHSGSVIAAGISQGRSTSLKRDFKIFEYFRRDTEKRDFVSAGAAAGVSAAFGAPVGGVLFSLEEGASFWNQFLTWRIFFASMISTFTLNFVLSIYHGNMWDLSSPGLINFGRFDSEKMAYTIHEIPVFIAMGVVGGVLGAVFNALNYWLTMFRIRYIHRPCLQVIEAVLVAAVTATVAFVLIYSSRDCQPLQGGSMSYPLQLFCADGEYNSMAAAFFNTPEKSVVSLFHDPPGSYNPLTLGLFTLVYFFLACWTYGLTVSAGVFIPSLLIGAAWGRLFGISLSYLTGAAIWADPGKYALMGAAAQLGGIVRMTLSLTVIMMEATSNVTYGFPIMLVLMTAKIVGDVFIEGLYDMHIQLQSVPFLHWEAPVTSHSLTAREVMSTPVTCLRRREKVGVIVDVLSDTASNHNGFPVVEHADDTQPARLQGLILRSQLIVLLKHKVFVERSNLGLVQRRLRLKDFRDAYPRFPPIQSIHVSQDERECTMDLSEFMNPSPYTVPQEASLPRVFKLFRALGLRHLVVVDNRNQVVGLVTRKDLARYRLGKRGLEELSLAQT
UniProt Q96KP4: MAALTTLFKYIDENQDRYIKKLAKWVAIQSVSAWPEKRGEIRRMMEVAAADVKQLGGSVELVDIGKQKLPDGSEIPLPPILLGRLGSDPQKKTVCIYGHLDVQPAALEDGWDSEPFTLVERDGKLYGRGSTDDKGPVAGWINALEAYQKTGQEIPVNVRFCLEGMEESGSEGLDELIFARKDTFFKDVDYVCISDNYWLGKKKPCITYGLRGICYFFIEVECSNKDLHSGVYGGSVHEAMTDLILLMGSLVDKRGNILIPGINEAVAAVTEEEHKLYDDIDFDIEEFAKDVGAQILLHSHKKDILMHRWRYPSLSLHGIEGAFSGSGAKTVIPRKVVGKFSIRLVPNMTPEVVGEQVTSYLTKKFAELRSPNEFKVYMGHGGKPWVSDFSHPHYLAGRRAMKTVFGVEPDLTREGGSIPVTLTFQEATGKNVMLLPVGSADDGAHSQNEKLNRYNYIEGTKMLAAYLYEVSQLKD
UniProt P51790: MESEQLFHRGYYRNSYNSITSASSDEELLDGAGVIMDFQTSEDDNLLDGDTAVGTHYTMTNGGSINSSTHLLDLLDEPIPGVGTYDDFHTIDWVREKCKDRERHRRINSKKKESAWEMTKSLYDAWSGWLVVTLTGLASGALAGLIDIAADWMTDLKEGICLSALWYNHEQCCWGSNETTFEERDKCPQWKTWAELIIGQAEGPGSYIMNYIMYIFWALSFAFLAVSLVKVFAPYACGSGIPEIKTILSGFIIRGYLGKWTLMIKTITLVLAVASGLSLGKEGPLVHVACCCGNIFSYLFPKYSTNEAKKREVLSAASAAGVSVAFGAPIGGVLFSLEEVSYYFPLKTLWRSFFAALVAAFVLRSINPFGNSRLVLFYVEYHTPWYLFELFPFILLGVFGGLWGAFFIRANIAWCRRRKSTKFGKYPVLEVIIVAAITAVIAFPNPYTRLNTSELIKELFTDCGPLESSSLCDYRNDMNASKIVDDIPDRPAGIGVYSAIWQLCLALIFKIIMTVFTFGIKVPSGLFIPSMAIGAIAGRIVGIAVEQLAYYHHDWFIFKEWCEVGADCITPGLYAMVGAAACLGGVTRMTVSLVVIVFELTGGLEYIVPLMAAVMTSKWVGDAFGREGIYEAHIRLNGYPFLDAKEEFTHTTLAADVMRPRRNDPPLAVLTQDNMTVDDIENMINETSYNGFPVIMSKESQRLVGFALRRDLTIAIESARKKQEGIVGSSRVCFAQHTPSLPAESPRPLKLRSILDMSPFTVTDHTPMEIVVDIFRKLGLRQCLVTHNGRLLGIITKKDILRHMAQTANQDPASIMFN
UniProt Q8IWV2: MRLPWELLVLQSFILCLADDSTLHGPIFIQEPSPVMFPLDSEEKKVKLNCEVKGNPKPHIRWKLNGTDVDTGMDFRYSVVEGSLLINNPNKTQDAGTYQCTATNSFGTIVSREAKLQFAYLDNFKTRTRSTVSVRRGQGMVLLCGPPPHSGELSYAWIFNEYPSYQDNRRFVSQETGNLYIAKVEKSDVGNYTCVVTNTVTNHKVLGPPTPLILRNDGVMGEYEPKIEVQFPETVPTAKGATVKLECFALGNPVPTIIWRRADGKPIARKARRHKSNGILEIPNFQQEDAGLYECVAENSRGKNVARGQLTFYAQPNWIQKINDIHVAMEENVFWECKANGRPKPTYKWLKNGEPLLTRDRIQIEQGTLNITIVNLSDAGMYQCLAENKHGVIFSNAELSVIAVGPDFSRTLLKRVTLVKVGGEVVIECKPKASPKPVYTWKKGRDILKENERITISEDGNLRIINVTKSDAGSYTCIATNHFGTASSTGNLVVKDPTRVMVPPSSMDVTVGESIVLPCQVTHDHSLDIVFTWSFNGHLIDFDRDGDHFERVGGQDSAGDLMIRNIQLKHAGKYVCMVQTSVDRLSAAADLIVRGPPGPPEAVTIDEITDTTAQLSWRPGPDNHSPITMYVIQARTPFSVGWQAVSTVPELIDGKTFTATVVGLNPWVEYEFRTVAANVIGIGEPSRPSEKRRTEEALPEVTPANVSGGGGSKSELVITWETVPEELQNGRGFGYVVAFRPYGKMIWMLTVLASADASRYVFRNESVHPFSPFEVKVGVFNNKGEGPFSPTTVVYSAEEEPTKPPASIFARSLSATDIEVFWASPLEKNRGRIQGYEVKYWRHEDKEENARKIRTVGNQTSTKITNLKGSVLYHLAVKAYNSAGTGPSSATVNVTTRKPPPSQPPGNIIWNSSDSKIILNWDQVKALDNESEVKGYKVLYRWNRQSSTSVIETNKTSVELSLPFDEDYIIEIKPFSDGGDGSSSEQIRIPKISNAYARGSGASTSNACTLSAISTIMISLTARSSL
UniProt P02452, whole entry, looked up: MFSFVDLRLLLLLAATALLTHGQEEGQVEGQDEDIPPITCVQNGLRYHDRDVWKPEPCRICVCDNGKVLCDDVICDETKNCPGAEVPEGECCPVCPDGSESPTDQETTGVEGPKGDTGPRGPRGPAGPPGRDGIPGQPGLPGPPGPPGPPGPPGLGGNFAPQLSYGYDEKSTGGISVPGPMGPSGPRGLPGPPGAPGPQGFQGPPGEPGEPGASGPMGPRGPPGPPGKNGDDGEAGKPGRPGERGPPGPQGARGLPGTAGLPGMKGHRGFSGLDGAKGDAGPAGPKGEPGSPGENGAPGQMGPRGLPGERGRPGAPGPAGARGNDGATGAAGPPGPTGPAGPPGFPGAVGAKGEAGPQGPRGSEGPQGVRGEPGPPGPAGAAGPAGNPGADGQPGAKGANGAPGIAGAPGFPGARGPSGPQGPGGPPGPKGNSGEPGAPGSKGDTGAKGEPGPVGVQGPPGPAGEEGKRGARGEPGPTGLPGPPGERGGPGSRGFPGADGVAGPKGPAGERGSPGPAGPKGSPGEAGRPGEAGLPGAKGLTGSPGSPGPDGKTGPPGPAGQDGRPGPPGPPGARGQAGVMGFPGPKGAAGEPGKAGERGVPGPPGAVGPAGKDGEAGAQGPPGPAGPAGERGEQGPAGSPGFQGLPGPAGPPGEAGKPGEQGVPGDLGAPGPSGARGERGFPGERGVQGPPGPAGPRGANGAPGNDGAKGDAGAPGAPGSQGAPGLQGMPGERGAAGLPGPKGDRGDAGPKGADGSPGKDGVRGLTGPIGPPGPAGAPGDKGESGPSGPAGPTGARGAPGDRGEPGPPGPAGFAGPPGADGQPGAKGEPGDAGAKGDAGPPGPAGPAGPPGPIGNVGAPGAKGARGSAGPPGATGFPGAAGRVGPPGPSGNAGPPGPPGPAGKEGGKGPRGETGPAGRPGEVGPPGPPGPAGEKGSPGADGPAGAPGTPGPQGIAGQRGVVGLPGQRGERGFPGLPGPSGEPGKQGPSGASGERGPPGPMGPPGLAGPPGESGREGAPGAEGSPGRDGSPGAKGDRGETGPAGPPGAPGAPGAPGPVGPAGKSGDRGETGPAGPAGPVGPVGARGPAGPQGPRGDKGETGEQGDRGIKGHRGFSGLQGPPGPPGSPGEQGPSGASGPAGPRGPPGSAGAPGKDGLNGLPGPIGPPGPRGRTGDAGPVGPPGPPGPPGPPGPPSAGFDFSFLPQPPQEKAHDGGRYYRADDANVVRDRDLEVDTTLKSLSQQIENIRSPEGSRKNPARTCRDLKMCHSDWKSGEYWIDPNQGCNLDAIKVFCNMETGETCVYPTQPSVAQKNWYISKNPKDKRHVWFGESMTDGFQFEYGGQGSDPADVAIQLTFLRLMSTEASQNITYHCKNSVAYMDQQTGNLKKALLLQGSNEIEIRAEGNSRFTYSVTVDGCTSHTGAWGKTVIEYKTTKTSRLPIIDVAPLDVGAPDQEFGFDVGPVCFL
UniProt Q9NX76: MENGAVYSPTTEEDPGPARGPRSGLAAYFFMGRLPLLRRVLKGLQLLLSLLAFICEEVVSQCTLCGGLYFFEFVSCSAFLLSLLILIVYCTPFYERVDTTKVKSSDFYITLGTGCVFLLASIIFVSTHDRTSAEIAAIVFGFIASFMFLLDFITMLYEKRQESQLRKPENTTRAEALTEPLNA

Legend:
Assay in all cases: log2 fold change, soluble protein after heating vs DMSO (PISA); higher = thermal stabilisation; K562 cells, 10 uM, 30 min; active = over 0.2 and 3.5 SD of the protein, either way, in both replicates (recomputed)
[1] = compound: CS(=O)(=O)c1ccc(-c2cnc(N)c(C(=O)Nc3ccccc3)n2)cc1
In short: (§1)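 Soluble protein was defined as the supernatant after 21,000xg for 90 min. It came from K562 cells at 2×10^6 cells/mL given 10 μM compound for 30 min, heated in aliquots for 3 min across 48°C-58°C, pooled, and extracted in PBS with 0.5% NP-40 at 4°C, and was quantified by TMTpro 16plex LC-MS/MS with equalised channel sums. Thermal stability against control samples, from duplicates, is reported as log2 fold change.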

crizotinib = compound: C[C@@H](Oc1cc(-c2cnn(C3CCNCC3)c2)cnc1N)c1c(Cl)ccc(F)c1Cl [crizotinib]
In short: as §1

[2] = compound: C[C@@H]1COCCN1C2=NC(=NC(=C2)C3(CC3)S(=O)(=O)C)C4=C5C=CNC5=CC=C4
In short: as §1

[3] = compound: C[C@H](C1=CC=C(C=C1)C(=O)NC2=C3C=CNC3=NC=C2)N
In short: as §1

gandotinib = compound: Cc1cc(Nc2cc(CN3CCOCC3)c3nc(C)c(Cc4ccc(Cl)cc4F)n3n2)n[nH]1 [gandotinib]
In short: as §1

[4] = compound: Cc1cc(SCc2sc(-c3ccc(C(F)(F)F)cc3)nc2C)ccc1OCC(=O)O
In short: as §1

doramapimod = compound: Cc1ccc(-n2nc(C(C)(C)C)cc2NC(=O)Nc2ccc(OCCN3CCOCC3)c3ccccc23)cc1 [doramapimod]
In short: as §1

ispinesib = compound: Cc1ccc(C(=O)N(CCCN)[C@@H](c2nc3cc(Cl)ccc3c(=O)n2Cc2ccccc2)C(C)C)cc1 [ispinesib]
In short: as §1

bafetinib = compound: Cc1ccc(NC(=O)c2ccc(CN3CC[C@H](N(C)C)C3)c(C(F)(F)F)c2)cc1Nc1nccc(-c2cncnc2)n1 [bafetinib]
In short: as §1

[5] = compound: Cc1cccc(CC(=O)N2CCc3c2ccc(-c2cn(C)c4ncnc(N)c24)c3F)n1
In short: as §1

nilotinib = compound: Cc1cn(-c2cc(NC(=O)c3ccc(C)c(Nc4nccc(-c5cccnc5)n4)c3)cc(C(F)(F)F)c2)cn1 [nilotinib]
In short: as §1

[6] = compound: Cc1nc(Nc2n[nH]c3c2CN(C(=O)N[C@H](CN(C)C)c2ccccc2)C3(C)C)c2sccc2n1
In short: as §1

dasatinib = compound: Cc1nc(Nc2ncc(C(=O)Nc3c(C)cccc3Cl)s2)cc(N2CCN(CCO)CC2)n1 [dasatinib]
In short: as §1

[7] = compound: Cc1ncc(-c2ccnc(Nc3ccc(S(C)(=O)=O)cc3)n2)n1C(C)C
In short: as §1

[8] = compound: Cn1cc(-c2ccc3c(c2)CCN3C(=O)Cc2cccc(C(F)(F)F)c2)c2c(N)ncnc21
In short: as §1

[9] = compound: Cn1cc(-c2ccc3nnc(C(F)(F)c4ccc5ncccc5c4)n3n2)cn1
In short: as §1

tipifarnib = compound: Cn1cncc1[C@@](N)(c1ccc(Cl)cc1)c1ccc2c(c1)c(-c1cccc(Cl)c1)cc(=O)n2C [tipifarnib]
In short: as §1

mubritinib = compound: FC(F)(F)c1ccc(/C=C/c2nc(COc3ccc(CCCCn4ccnn4)cc3)co2)cc1 [mubritinib]
In short: as §1

duvelisib = compound: C[C@H](Nc1ncnc2nc[nH]c12)c1cc2cccc(Cl)c2c(=O)n1-c1ccccc1 [duvelisib]
In short: as §1

tozasertib = compound: Cc1cc(Nc2cc(N3CCN(C)CC3)nc(Sc3ccc(NC(=O)C4CC4)cc3)n2)n[nH]1 [tozasertib]
In short: as §1

Target	log2 fold change [1]	log2 fold change (crizotinib)	log2 fold change [2]	log2 fold change [3]	log2 fold change (gandotinib)	log2 fold change [4]	log2 fold change (doramapimod)	log2 fold change (ispinesib)	log2 fold change (bafetinib)	log2 fold change [5]	log2 fold change (nilotinib)	log2 fold change [6]	log2 fold change (dasatinib)	log2 fold change [7]	log2 fold change [8]	log2 fold change [9]	log2 fold change (tipifarnib)	log2 fold change (mubritinib)	log2 fold change (duvelisib)	log2 fold change (tozasertib)
CIT isoform 4 (UniProt O14578)	inactive: -0.023	inactive: -0.077	inactive: -0.013	inactive: 0.08	inactive: -0.001	inactive: -0.033	inactive: 0.026	inactive: 0.072	inactive: -0.01	inactive: 0.07	inactive: -0.049	inactive: -0.065	inactive: -0.064	inactive: -0.03	inactive: 0.006	inactive: -0.075	inactive: -0.009	inactive: 0.031	–	–
CHPF (UniProt Q8IZ52)	inactive: -0.067	inactive: 0.157	inactive: -0.114	inactive: -0.017	–	inactive: 0.065	inactive: 0.257	inactive: -0.137	inactive: 0.189	–	inactive: 0.018	inactive: -0.033	inactive: -0.112	inactive: -0.116	inactive: -0.041	inactive: -0.013	inactive: 0.053	inactive: -0.054	inactive: 0.029	inactive: -0.07
CLPTM1L (UniProt Q96KA5)	inactive: 0.036	inactive: -0.08	inactive: 0.025	inactive: -0.013	active: -0.268	inactive: 0	inactive: -0.012	active: -0.326	inactive: -0.186	inactive: 0.07	inactive: -0.103	inactive: 0.009	inactive: -0.045	inactive: -0.016	inactive: -0.042	inactive: 0.011	inactive: -0.056	inactive: 0.02	–	–
CHP1 (UniProt Q99653)	inactive: 0.025	inactive: 0.109	inactive: -0.061	inactive: -0.027	inactive: 0.022	inactive: -0.026	inactive: -0.021	inactive: 0.25	inactive: 0	inactive: -0.087	inactive: 0.014	inactive: 0.019	inactive: 0.042	inactive: 0.004	inactive: 0.043	inactive: -0.116	inactive: 0.072	inactive: 0.037	–	–
CLPP (UniProt Q16740)	inactive: 0.05	active: 0.348	inactive: 0.058	inactive: -0.025	inactive: 0.008	inactive: 0.017	inactive: 0.003	inactive: 0.105	inactive: 0.025	inactive: -0.045	inactive: 0.022	inactive: 0.005	inactive: 0.063	inactive: -0.016	inactive: 0.115	inactive: 0.02	inactive: 0.003	inactive: 0.004	–	–
CLCN7 (UniProt P51798)	inactive: -0.037	active: -0.814	inactive: 0.018	inactive: -0.091	inactive: -0.193	inactive: 0.028	inactive: -0.008	active: -0.952	inactive: -0.24	inactive: 0.083	inactive: -0.035	inactive: -0.012	inactive: -0.091	inactive: -0.111	inactive: 0.011	inactive: 0.049	inactive: 0.038	inactive: -0.02	–	–
COCH (UniProt O43405)	inactive: -0.051	inactive: -0.05	inactive: -0.033	inactive: -0.016	inactive: 0.059	inactive: -0.053	inactive: 0.052	inactive: -0.042	inactive: 0.076	inactive: -0.17	inactive: 0.2	inactive: -0.288	inactive: 0.179	inactive: -0.262	inactive: -0.069	inactive: -0.005	inactive: 0.07	inactive: -0.062	–	–
CIZ1 (UniProt Q9ULV3)	inactive: -0.008	inactive: -0.097	inactive: 0.017	inactive: -0.079	inactive: -0.121	inactive: 0.016	inactive: 0.005	inactive: -0.015	inactive: -0.063	inactive: 0.013	inactive: 0.016	inactive: -0.181	inactive: -0.016	inactive: -0.063	inactive: 0.021	inactive: -0.066	inactive: 0.008	inactive: 0.019	–	–
CKAP2 (UniProt Q8WWK9)	inactive: -0.032	inactive: -0.347	inactive: -0.571	inactive: 0.452	–	inactive: 0.093	inactive: 0.142	inactive: -0.431	–	–	inactive: -0.054	inactive: -0.044	inactive: 0.058	inactive: 0.002	inactive: -0.294	inactive: -0.262	inactive: 0.187	inactive: -0.333	inactive: -0.184	inactive: -0.173
CKS1B (UniProt P61024)	inactive: -0.013	inactive: 0.063	inactive: 0.06	inactive: -0.051	inactive: 0	inactive: -0.093	inactive: -0.026	inactive: 0.224	inactive: -0.065	inactive: -0.06	inactive: 0.14	inactive: -0.016	inactive: 0	inactive: 0.026	inactive: 0.067	inactive: 0.017	inactive: -0.043	inactive: 0.056	–	–
CNDP2 (UniProt Q96KP4)	inactive: 0.03	inactive: -0.061	inactive: 0.102	inactive: -0.067	inactive: 0.072	inactive: 0.015	inactive: 0.018	inactive: -0.099	inactive: -0.03	inactive: 0.006	inactive: 0.045	inactive: -0.015	inactive: -0.031	inactive: -0.041	inactive: 0.066	inactive: 0.032	inactive: -0.067	inactive: 0.101	–	–
CLCN3 isoform 2 (UniProt P51790)	inactive: -0.008	inactive: -0.074	inactive: 0.09	inactive: -0.142	inactive: 0.02	inactive: -0.011	inactive: 0.009	inactive: -0.25	inactive: -0.044	inactive: 0.076	inactive: -0.016	inactive: 0.034	inactive: 0.027	inactive: 0.017	inactive: 0.017	inactive: 0.027	inactive: 0.004	inactive: -0.004	–	–
CNTN4 (UniProt Q8IWV2)	inactive: -0.03	inactive: 0.064	inactive: 0.148	inactive: -0.099	inactive: 0.144	inactive: -0.087	inactive: -0.095	inactive: -0.046	inactive: -0.109	inactive: 0.008	inactive: 0.06	inactive: 0.01	inactive: 0.003	inactive: -0.13	inactive: 0.131	inactive: 0.032	inactive: -0.097	inactive: 0.224	–	–
COL1A1 (UniProt P02452)	inactive: 0.054	inactive: 0.161	inactive: -0.059	inactive: 0.461	–	inactive: -0.207	inactive: 0.112	inactive: 0.004	inactive: 0.175	–	–	–	inactive: 0.079	–	inactive: 0.204	inactive: -0.095	inactive: 0.071	–	inactive: 0.041	inactive: -0.121
CMTM6 (UniProt Q9NX76)	inactive: 0.03	inactive: 0.119	inactive: 0.103	inactive: -0.099	–	inactive: -0.072	inactive: 0.108	inactive: 0.151	inactive: -0.014	–	inactive: 0.101	inactive: 0.004	inactive: -0.018	inactive: -0.025	inactive: 0.164	inactive: -0.002	inactive: -0.11	inactive: 0.014	inactive: 0.231	inactive: 0.017
CLEC3B (UniProt P05452)	inactive: -0.127	–	inactive: -0.076	inactive: 0.049	–	inactive: -0.167	–	inactive: -0.084	inactive: -0.253	–	inactive: 0.072	inactive: -0.066	inactive: -0.072	inactive: 0.385	inactive: 0.356	inactive: -0.175	inactive: -0.045	inactive: -0.358	inactive: -0.178	inactive: -0.102
CNN3 (UniProt Q15417)	inactive: 0.044	–	inactive: 0.075	inactive: -0.066	inactive: -0.1	inactive: 0.15	–	–	inactive: 0.02	inactive: -0.025	inactive: -0.066	inactive: -0.056	inactive: -0.057	inactive: 0.108	inactive: 0.023	–	inactive: -0.107	inactive: 0.06	–	–

Single values from the list:
Value for CKS1B (UniProt P61024) under log2 fold change [2]: inactive: 0.06
Value for CNN3 (UniProt Q15417) under log2 fold change [1]: inactive: 0.044
